Results reported in patent publication US20130331333A1 (HADASIT MEDICAL RESEARCH SERVICES AND DEVELOPMENT, published 2013).
Residue numbers refer to the chain shown, from its start. Results are given in words; binding and its absence hold for the method and conditions named. For part of these data: In cells and extracts the contact can be indirect. Some entries that bind do so weakly or less than the wild type. For part of these data: Where a sequence is shown, tags or fusion partners need not be part of it.

Chains of the proteins cited; added tags and fusions are not shown. Lines headed by an entry give the natural chain unless they say otherwise; changes in a name come on top. Residues count along the entry.
UniProt P55085: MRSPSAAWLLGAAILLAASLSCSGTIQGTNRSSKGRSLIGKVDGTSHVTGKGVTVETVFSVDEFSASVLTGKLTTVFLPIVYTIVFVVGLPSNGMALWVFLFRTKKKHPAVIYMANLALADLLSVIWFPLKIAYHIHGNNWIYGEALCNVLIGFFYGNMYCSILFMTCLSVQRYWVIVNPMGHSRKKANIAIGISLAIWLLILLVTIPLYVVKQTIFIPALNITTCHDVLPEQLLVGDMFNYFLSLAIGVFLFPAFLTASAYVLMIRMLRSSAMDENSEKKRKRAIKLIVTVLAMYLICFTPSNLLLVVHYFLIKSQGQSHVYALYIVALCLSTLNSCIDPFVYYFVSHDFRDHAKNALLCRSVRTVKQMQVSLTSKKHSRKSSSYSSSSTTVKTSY
wild-type protease-activated receptor 2 (wt hPar2): residues 37-397 of P55085
GST-PAR2 C-tail wt: residues 348-397 of P55085
UniProt P31749: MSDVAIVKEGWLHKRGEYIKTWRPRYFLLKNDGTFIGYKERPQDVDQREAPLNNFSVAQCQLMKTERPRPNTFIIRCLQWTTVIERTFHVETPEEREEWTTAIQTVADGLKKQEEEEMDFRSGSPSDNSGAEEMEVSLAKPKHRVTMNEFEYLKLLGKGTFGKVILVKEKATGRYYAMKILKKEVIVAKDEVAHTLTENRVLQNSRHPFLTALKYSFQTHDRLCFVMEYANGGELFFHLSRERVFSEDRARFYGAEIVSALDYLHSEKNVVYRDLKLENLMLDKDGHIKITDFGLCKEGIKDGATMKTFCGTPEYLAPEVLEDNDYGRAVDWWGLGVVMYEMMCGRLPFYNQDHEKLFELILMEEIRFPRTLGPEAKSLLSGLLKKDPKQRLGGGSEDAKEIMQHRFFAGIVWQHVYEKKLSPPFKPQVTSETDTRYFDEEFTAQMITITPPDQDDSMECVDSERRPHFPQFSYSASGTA

Tests used:
HA-tagged wt hPar1 [1] = target: T1, HA-tagged wt hPar1 (human, UniProt P25116 42-425); test: co-immunoprecipitation, HU cells transfected with wt hPar1
T1 construct: whole, on cells; Tested in lysates of transfected cells; also called HA-wt hPar1; HA-wthPar1; not shown: HA tag added downstream of the ATG start codon
T1 sequence (looked up): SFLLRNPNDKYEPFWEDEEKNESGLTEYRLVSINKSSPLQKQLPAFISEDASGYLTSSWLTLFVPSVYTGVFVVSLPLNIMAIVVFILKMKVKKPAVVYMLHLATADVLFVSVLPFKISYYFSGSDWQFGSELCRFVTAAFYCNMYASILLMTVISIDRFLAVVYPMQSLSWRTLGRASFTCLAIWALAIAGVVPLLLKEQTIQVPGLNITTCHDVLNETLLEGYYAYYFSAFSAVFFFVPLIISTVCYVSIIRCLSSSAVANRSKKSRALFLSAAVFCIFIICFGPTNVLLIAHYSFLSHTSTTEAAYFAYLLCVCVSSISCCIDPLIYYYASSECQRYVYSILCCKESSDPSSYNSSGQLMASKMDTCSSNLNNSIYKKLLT

[2] = target: T2, wild-type human protease-activated receptor 1 (wt hPar1) (human) (UniProt P25116); test: co-immunoprecipitation after PAR1 activation
T2 sequence (looked up): T1 sequence (looked up)

[3] = target: GST-PAR2 C-tail wt (human) (UniProt P55085); test: HCT-116 cell lysates (lacking Etk/Bmx) applied on GST beads of PAR2-C-tail
[4] = target: T3, GST-PAR1 C-tail (wt) (human) (UniProt P25116); test: HCT-116 cell lysates (lacking Etk/Bmx) applied on GST beads of PAR1-C-tail
T3 sequence: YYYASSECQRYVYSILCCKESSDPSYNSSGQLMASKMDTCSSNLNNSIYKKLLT

[5] = target: wild-type protease-activated receptor 2 (wt hPar2) (human) (UniProt P55085); test: co-immunoprecipitation before and after SLIGKV activation
HA-tagged wt hPar1 [6] = target: T1, HA-tagged wt hPar1; test: lysates of cells transfected with HA-tag-hPar1 applied on GST-PH-Akt
[7] = target: wild-type protease-activated receptor 2 (wt hPar2) (human) (UniProt P55085); test: cell lysates applied on GST immobilized PH-domain columns
HA-tagged wt hPar1 [8] = target: T1, HA-tagged wt hPar1; test: lysates with HA-PAR1 on GST PH-Akt
[9] = target: wild-type protease-activated receptor 2 (wt hPar2) (human) (UniProt P55085); test: cell lysates applied on GST immobilized PH-domain columns (PAR2)
[10] = target: T4, purified wt PAR1 C-tail (cleaved from GST-C-tail with thrombin) (human); test: purified C-tail re-applied on GST-Etk-PH domain column
T4 sequence: T3 sequence

[11] = target: T4, purified wt PAR1 C-tail (cleaved from GST-C-tail with thrombin) (human); test: purified C-tail fragments applied on GST-PH Etk/Bmx column, anti-PAR1 blot
[12] = target: T3, GST-PAR1 C-tail (wt) (human); test: HEK293 lysates on GST-PAR1-C-tail columns, anti-Etk/Bmx blot
[13] = target: wild-type protease-activated receptor 2 (wt hPar2) (human) (UniProt P55085); test: co-immunoprecipitation, MCF7 cells transfected with hPar2 and Etk/Bmx
HA-tagged wt hPar1 [14] = target: T1, HA-tagged wt hPar1; test: co-immunoprecipitation with anti-HA, anti-Bmx blot, MCF7 clones after PAR1 activation
[15] = target: T3, GST-PAR1 C-tail (wt) (human); test: cell lysates applied on GST beads of PAR1-C-tail
[16] = target: GST-PAR2C-tail K356Z (printed K3356Z and K365Z) (human) (UniProt P55085); test: Etk/Bmx expressing cell lysates on truncated GST-PAR2 C-tails
[17] = target: wild-type protease-activated receptor 2 (wt hPar2) (human) (UniProt P55085); test: co-immunoprecipitation before and after SLIGKV activation, HEK-293T cells transfected with hPar2 and T7-tagged Etk/Bmx

Measured: binding

Akt (PKB) (from UniProt P31749 1-480) (enzyme)
binds: HA-tagged wt hPar1 [1] | [2] | [3] | [4] | [5]

GST-PH-Akt (from UniProt P31749 1-123)
binds: HA-tagged wt hPar1 [6] | [7] | HA-tagged wt hPar1 [8] | [9]

B1: GST-PH-Etk/Bmx (other, UniProt P51813 1-111, looked up)
chain: MDTKSILEELLLKRSQQKKKMSPNNYKERLFVLTKTNLSYYEYDKMKRGSRKGSIEIKKIRCVEKVNLEEQTPVERQYPFQIVYKDGLLYVYASNEESRSQWLKALQKEIR
notes: domain: PH domain; Made as in Chen et al. 2001; also called GST-Etk-PH; GST-Etk/Bmx; not shown: GST tag
binds: [10] | [11]

B2: Etk/Bmx (epithelial tyrosine kinase), wild type (enzyme, UniProt P51813 1-675, looked up)
chain: MDTKSILEELLLKRSQQKKKMSPNNYKERLFVLTKTNLSYYEYDKMKRGSRKGSIEIKKIRCVEKVNLEEQTPVERQYPFQIVYKDGLLYVYASNEESRSQWLKALQKEIRGNPHLLVKYHSGFFVDGKFLCCQQSCKAAPGCTLWEAYANLHTAVNEEKHRVPTFPDRVLKIPRAVPVLKMDAPSSSTTLAQYDNESKKNYGSQPPSSSTSLAQYDSNSKKIYGSQPNFNMQYIPREDFPDWWQVRKLKSSSSSEDVASSNQKERNVNHTTSKISWEFPESSSSEEEENLDDYDWFAGNISRSQSEQLLRQKGKEGAFMVRNSSQVGMYTVSLFSKAVNDKKGTVKHYHVHTNAENKLYLAENYCFDSIPKLIHYHQHNSAGMITRLRHPVSTKANKVPDSVSLGNGIWELKREEITLLKELGSGQFGVVQLGKWKGQYDVAVKMIKEGSMSEDEFFQEAQTMMKLSHPKLVKFYGVCSKEYPIYIVTEYISNGCLLNYLRSHGKGLEPSQLLEMCYDVCEGMAFLESHQFIHRDLAARNCLVDRDLCVKVSDFGMTRYVLDDQYVSSVGTKFPVKWSAPEVFHYFKYSSKSDVWAFGILMWEVFSLGKQPYDLYDNSQVVLKVSQGHRLYRPHLASDTIYQIMYSCWHELPEKRPTFQQLLSSIEPLREKDKH
binds: [12] | [13] | HA-tagged wt hPar1 [14] | [15] | [16]

B3: kinase-inactive Etk/Bmx (KQ) (enzyme, UniProt P51813 1-675, looked up)
chain: B2 chain with K445Q
binds: [12]

B4: T7-tagged Etk/Bmx (enzyme, UniProt P51813 1-675, looked up, not shown: small tags and cut ends)
chain: B2 chain
binds: [17]
